Source: EP4803549A1
Results are given in words; binding and its absence hold for the method and conditions named. Some binding calls cover weakened binding; strength is not graded here. For part of these data: Tags and fused reporters may be left off the sequences shown.

Protein sequences, listed by entry. Tags and fused reporters are not part of them. Lines headed by an entry give the natural chain unless they say otherwise; changes in a name come on top.
UniProt Q02223: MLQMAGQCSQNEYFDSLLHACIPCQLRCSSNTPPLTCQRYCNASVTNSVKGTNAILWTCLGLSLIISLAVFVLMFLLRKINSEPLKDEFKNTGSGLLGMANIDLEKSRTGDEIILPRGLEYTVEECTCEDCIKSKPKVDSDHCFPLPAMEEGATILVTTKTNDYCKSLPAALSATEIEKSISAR
UniProt Q9NZD1: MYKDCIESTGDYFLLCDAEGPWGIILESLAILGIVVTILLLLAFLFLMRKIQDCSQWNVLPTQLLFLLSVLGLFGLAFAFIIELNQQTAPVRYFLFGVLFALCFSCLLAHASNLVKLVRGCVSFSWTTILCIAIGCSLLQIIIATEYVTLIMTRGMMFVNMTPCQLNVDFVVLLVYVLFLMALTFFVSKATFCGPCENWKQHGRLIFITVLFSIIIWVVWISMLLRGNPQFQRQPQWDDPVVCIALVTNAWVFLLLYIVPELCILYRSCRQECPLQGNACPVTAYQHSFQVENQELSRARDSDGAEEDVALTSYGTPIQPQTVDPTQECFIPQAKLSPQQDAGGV

How the values were obtained:
[1] = target: human BCMA protein expressed on the cell surface (human) (UniProt Q02223); experiment: flow cytometry on NCI-H929 cells endogenously expressing human BCMA
[2] = target: human BCMA protein expressed on the cell surface (human) (UniProt Q02223); experiment: flow cytometry on CHOK1-huBCMA cells
[3] = target: human GPRC5D protein expressed on the cell surface (human) (UniProt Q9NZD1); experiment: flow cytometry on 293T cells expressing human GPRC5D

B1: 269B094 (a fully human monoclonal antibody targeting BCMA) (antibody, V domains shown)
VH: DVQLVESGGGLVQPGGSLRLSCAASGRTFSSIVMGWFRQAPGKEREFVGAIMWNDGITYLQDSVKGRFTIFRDNAKNTVYLQMNSLKLEDTAVYYCAASKGRYSEYEYWGQGTQVTVSS
B1 was tested, and the binding [1] was “binds” and the binding [2] was “binds”.

B2: camelid-derived anti-GPRC5D VHH-Fc antibody (antibody, human IgG1, V domains shown)
VH: EVQLQESGGGLVQAGGSLRLSCAASGIFLSASVMRWYRRAPGKQRELVASMLNSNTNYADSVKGRFTISRDNTKNTMYLQMNSLKPEDTAVYYCNAERSGVYWGQGTQVTVSS
With B2 the binding [3] was “binds”.
